System: MDA-MB-231 cells
Experiment: MTT proliferation inhibition / toxicity on MDA-MB-231
Assay type: cell-based
Settings: Homo sapiens, 48 hours
Experimental: 4×10^3 MDA-MB-231 cells/well were inoculated into a 96-well plate with a concentration of 100 μL/well, and cultured in a 5% CO2 cell incubator at 37° C. for 24 hours, then a supernatant was removed after 24 hours, and 200 μL of drug-containing medium was added. The final concentrations of the PTX added to the MDA-MB-231 cells were 0.0039 μmol/L, 0.0078 μmol/L, 0.0156 μmol/L, 0.03125 μmol/L, 0.0625 μmol/L, 0.125 μmol/L, 0.25 μmol/L, 0.5 μmol/L and 1 μmol/L. At the same time, a control group (the same amount of culture fluid was added) and a blank zeroing group were set up. Each well was provided with 6 multiple wells and placed in a CO2 incubator for continuous cultivation for 48 hours. […] An OD value was measured at 570 nm of an enzyme reader. […]
(§1) 4×10^3 MDA-MB-231 cells/well were inoculated into a 96-well plate with a concentration of 100 μL/well, and cultured in a 5% CO2 cell incubator at 37° C. for 24 hours, then a supernatant was removed after 24 hours, and 200 μL of drug-containing medium was added. […] An OD value was measured at 570 nm of an enzyme reader. […]
as §1

**Q.** `CC(=O)O[C@H]1C(=O)[C@@]2(C)[C@H]([C@H](OC(=O)c3ccccc3)[C@]3(O)C[C@H](OC(=O)[C@H](O)[C@@H](NC(=O)c4ccccc4)c4ccccc4)C(C)=C1C3(C)C)[C@]1(OC(C)=O)CO[C@@H]1C[C@@H]2O` [PTX, paclitaxel] was tested. Which IC50 did it give?
**A.** 1020 nM

— patent US20210069120A1, “COMPOSITE NANOPARTICLE, PREPARATION METHOD THEREOF AND PREPARATION METHOD OF COMPOSITE NANO PREPARATION USING THEREOF” (JINAN UNIVERSITY, priority 2018, published 2021)
